# Measured values taken from PubChem BioAssay AID2551 (National Center for Advancing Translational Sciences (NCATS), 2010).
# By UniProt entry, the sequences of proteins in these tests, tags left out. Where a name states a change or a piece, a line headed by the entry shows the natural chain unless it says otherwise.
# UniProt P51450: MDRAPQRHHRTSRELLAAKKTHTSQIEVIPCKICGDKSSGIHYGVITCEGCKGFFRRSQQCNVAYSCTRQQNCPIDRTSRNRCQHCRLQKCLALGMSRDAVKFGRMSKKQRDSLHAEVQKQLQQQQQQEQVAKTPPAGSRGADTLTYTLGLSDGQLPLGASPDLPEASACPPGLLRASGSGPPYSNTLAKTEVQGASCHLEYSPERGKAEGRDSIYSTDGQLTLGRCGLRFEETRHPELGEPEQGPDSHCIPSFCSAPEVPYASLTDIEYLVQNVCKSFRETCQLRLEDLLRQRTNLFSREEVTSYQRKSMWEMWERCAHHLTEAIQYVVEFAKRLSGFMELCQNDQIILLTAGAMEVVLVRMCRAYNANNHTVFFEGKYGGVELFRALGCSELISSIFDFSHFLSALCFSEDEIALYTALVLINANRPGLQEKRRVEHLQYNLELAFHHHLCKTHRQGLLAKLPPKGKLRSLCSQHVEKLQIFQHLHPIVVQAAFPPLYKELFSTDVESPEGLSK
# The whole screen tested about 310,000 compounds, of which about 17,000 (5.5%) were called active. Inconclusive means that the source gave no clear call. Such entries were picked first, then a sample of the others. The call rests on the fitted dose curve; in most records, active means well fitted inhibition curve with a large enough effect; inconclusive means small, poorly fitted or top-dose-only effect, or effect the other way; inactive means no such curve, though single readings can be large or run the other way. Potencies of inconclusive entries are doubtful fits and often do not repeat. Some compounds were tested as several samples or in several runs, with calls that do not always agree.
# Biological target: Nuclear receptor ROR-gamma (Mus musculus) (UniProt P51450)
# Assay: qHTS for inhibitors of ROR gamma transcriptional activity; further: nearly all actives have a fitted effect of over 60% in size
# Conditions: Drosophila S2 Gal4-RORgamma UAS-luciferase reporter, 20 h; activity change, negative = inhibition: at 53.6 µM (top of the series)
# Procedure, shortened: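 Read-out: Photinus luciferase luminescence; inhibitors lower reporter signal. Insect Schneider cells with Gal4-ROR gamma fusion under metallothionein promoter, UAS reporter; 700 uM final copper sulfate induction, 20 hr, ambient temperature.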
# On the % scale 0 is the no-effect control and ±100 the full control effect; potency means the concentration at half of the fitted maximal effect.
SMILES,Potency,"activity change, negative = inhibition"
O=C(c1cc(COc2c(F)cccc2F)on1)N(Cc1ccccc1)CC1CC1,"inconclusive: 11.2 µM [activator, single point]",
CCC(CC)c1nnc(NC(=O)c2cc(-c3ccccc3)nc3ccccc23)s1,active: 10 µM,
CCN(CC)S(=O)(=O)c1cc(C(=O)c2nccn2C)ccc1Cl,,inactive: 2.62%
CNC(=O)[C@@H]1C[C@H]1[C@@H](NC(=O)OCc1ccccc1)c1ccccc1,active: 12.6 µM,
Cc1c(Cc2ccccc2)c(=O)oc2cc(OC(C)C(=O)NCC3CCC(C(=O)O)CC3)c(Cl)cc12 (stereo not drawn),"inconclusive: 14.1 µM [activator, single point]",
COc1ccc(C2CC(=O)c3c(O)cc(O)cc3O2)cc1O (stereo not drawn),,inactive: 9.11%
O=C(NC(=S)Nc1ccccc1Cl)c1cncc(Br)c1,active: 2.51 µM,
Cc1ccc(-n2nc(C)c(/C=N/NC(=O)c3cccnc3)c2Cl)cc1,"inconclusive: 35.5 µM [inhibitor, single point]",
Oc1ccc(-c2nc3ccc4ccccc4c3c3c2CCC3)cc1O,,inactive: 13.6%
COc1ccc(/C(C)=N/Nc2ncc(Cl)cc2Cl)c(O)c1,active: 0.112 µM,
CCCCn1nnc(NC(=O)COc2cc(C)ccc2C(C)C)n1,"inconclusive: 25.1 µM [activator, single point]",
CCC1(C)Cc2c(sc3c2c(=O)n(C)c2nnc(SCc4ccccc4)n32)CO1 (stereo not drawn),"inconclusive: 6.31 µM [inhibitor, single point]",
CC(=O)c1sc(N/N=C\c2ccccc2O)nc1C,active: 1.41 µM,
CCNc1nc(NCC)nc(N/N=C/c2ccccc2)n1,active: 14.1 µM,
O=c1/c(=C\c2ccc(O)cc2)sc2n1C(c1ccccc1)C(c1ccccc1)=NN=2 (stereo not drawn),"inconclusive: 0.0398 µM [inhibitor, full curve, poor fit]",
OCCn1c(-c2ccc3c(c2)OCO3)csc1=Nc1ccccc1,"inconclusive: 11.2 µM [activator, partial curve, poor fit]",
Cc1ccc(-c2cc(C(=O)Nc3ccccc3C)c3ccccc3n2)o1,"inconclusive: 35.5 µM [inhibitor, single point]",
CCN1C(=NCCCCO)N[C@@H](c2ccccc2)C(C(=O)OC)=C1C,,inactive: 2.27%
CC(NC(=O)CSc1nc2ccccc2c(=O)[nH]1)c1ccccc1 (stereo not drawn),"inconclusive: 0.0063 µM [activator, full curve, poor fit]",
Cc1ccc(-c2cc(-c3ccccc3O)nc(N/N=C/c3cccnc3)n2)cc1,"inconclusive: 35.5 µM [inhibitor, single point]",
O=c1cc(CSc2nc3cc(Cl)ccc3o2)nc2sccn12,"inconclusive: 1.26 µM [activator, full curve, poor fit]",
CC(C)C(=O)NC(=S)NCC(=O)c1ccccc1,active: 11.2 µM,
CCc1ccc(NC(=O)C(C)OC(=O)c2ccc(NS(=O)(=O)c3ccc(C)c([N+](=O)[O-])c3)cc2)cc1 (stereo not drawn),"inconclusive: 20 µM [activator, single point]",
Cc1cnc(NC(=O)c2ccccn2)s1,active: 0.794 µM,
COc1ccc(C2/C=C\CN(C(=O)CC(C)(C)C)C(C)C(=O)N2Cc2ccc(F)cc2)cc1 (stereo not drawn),"inconclusive: 35.5 µM [activator, single point]",

SMILES,Potency,"activity change, negative = inhibition"
CN(C)S(=O)(=O)N1CCN(c2ccc([N+](=O)[O-])c(N3CCCCC3)c2)CC1,"inconclusive: 20 µM [activator, single point]",
COc1cc(OC)cc(C(=O)OCC(=O)Nc2sccc2C(N)=O)c1,"inconclusive: 20 µM [activator, single point]",
O=C(N/N=C/c1ccccn1)c1[nH]c2ccc([N+](=O)[O-])cc2c1-c1ccccc1,active: 5.01 µM,
COc1ccccc1NC(=O)NNC(=O)CCc1ccccc1,,inactive: -34.9%
Cc1cc(C(=O)CN2C(=O)C(=O)N(Cc3ccccc3)C2=O)c(C)n1CC1COc2ccccc2O1 (stereo not drawn),"inconclusive: 6.31 µM [activator, partial curve]",
COc1ccc(/C=C2/NC(=O)CNC2=O)cc1,,inactive: 6%
S=C(Nc1ccc2c(c1)OCCO2)Nc1ccccc1Cl,"inconclusive: 35.5 µM [inhibitor, single point]",
O=C(Nc1ccc(S(=O)(=O)N2CCOCC2)cc1)c1ccco1,,inactive: 27.7%
NC(=O)/N=N/C(N)=O,"inconclusive: 11.2 µM [activator, partial curve]",
COc1cc(OC)c(C(=O)/C=C/c2ccc(OCc3ccccc3)c(OC)c2)c(OC)c1,"inconclusive: 10 µM [activator, partial curve, poor fit]",
Cc1cc(C)nc(-n2nc(C)c(Sc3ccc(F)cc3)c2N)n1,active: 2.24 µM,
CCOC(=O)C1CCCN(C(=O)Cn2sc3nc(C)cc(C)c3c2=O)C1 (stereo not drawn),"inconclusive: 22.4 µM [inhibitor, single point]",
Cc1cc(NC(=O)c2ccc(Cn3nc(C)c(Br)c3C)o2)no1,,inactive: 0.235%
O=C(Nc1ccc(N2CCOCC2)cc1)Nc1ccc(Cl)c(Cl)c1,"inconclusive: 15.8 µM [activator, partial curve]",
COc1ccc(/C=N/NC(=O)c2[nH]nc3c2CCc2ccccc2-3)cc1OC,"inconclusive: 17.8 µM [activator, partial curve, poor fit]",
CC(C)=CCC/C(C)=C/COc1c2occc2cc2ccc(=O)oc12,"inconclusive: 12.6 µM [inhibitor, full curve]",
CN(CC(=O)NCCc1ccc(S(N)(=O)=O)cc1)Cc1ccc(Cl)cc1Cl,"inconclusive: 22.4 µM [activator, partial curve]",
C/C(=N\NC(=O)c1cc(C)oc1C)c1ccc2ccccc2c1,active: 2.24 µM,
O=C(NCc1ccncc1)C1CCCN1S(=O)(=O)c1ccc(Cl)cc1 (stereo not drawn),active: 0.631 µM,
CCOC(=O)CC1(NC(=O)c2cc(COc3cccc(OC)c3)on2)CCCCC1,"inconclusive: 17.8 µM [activator, single point]",
Cc1nn(-c2cc(C)c3ccccc3n2)c2c1C1C(C2)C1(C)C (stereo not drawn),active: 0.708 µM,
CC1CC(C)CN(C(=O)c2ccc(CSc3nc4ccncc4[nH]3)cc2)C1 (stereo not drawn),"inconclusive: 31.6 µM [activator, single point]",
CCC(C)(C)NC(=O)C(c1ccc(C)cc1)N(Cc1cccnc1)C(=O)c1csnn1 (stereo not drawn),"inconclusive: 6.31 µM [activator, single point]",
Fc1cccc(Nc2cc(-n3cccn3)ncn2)c1,"inconclusive: 14.1 µM [activator, partial curve, poor fit]",
COC(=O)c1cc(NC(=O)CN2CCc3cc4c(cc3C2)OCCCO4)cc(C(=O)OC)c1,"inconclusive: 35.5 µM [activator, single point]",

# A second format for some results above:
SMILES	Potency	activity change, negative = inhibition
CCN1C(=NCCCCO)N[C@@H](c2ccccc2)C(C(=O)OC)=C1C		inactive: 2.27%
CC(NC(=O)CSc1nc2ccccc2c(=O)[nH]1)c1ccccc1 (stereo not drawn)	inconclusive: 0.0063 µM [activator, full curve, poor fit]	
Cc1ccc(-c2cc(-c3ccccc3O)nc(N/N=C/c3cccnc3)n2)cc1	inconclusive: 35.5 µM [inhibitor, single point]	

# The listing continues.

SMILES,Potency,"activity change, negative = inhibition"
Cn1cc(-c2nc3cncnc3n(CCN)c2=O)c2ccccc21,,inactive: -14.7%
CCCOc1ccc(C2=CSC3=NCCN23)cc1[N+](=O)[O-],,inactive: -5.76%
CSc1ncc(Cl)c(C(=O)NCc2ccc3c(c2)OCO3)n1,"inconclusive: 20 µM [activator, partial curve, poor fit]",
COc1cccc(OC)c1OCCOc1ccc(C(=O)c2ccccc2)cc1,"inconclusive: 11.2 µM [activator, single point]",
FC(F)(F)c1ccc(Nc2nnnc3ccccc23)cc1,"inconclusive: 10 µM [activator, partial curve, poor fit]",
COc1cc(-c2c(C#N)c(N)nc(SCc3ccncc3)c2C#N)cc(OC)c1OC,,inactive: -15.4%
CC(C)(C)C(=O)Nc1nnc(SCc2ccc(F)cc2)s1,"inconclusive: 12.6 µM [inhibitor, partial curve]",
COCc1[nH]nc2c1C1(CCSCC1)C(C#N)=C(N)O2,,inactive: 5.92%
COCCCNC(=O)/C=C/c1ccc(OCc2c(F)cccc2Cl)cc1,"inconclusive: 0.501 µM [inhibitor, full curve, poor fit]",
COc1ccc(C(=O)NC(=S)NCc2ccccc2)cc1OC,active: 3.16 µM,
COCCNc1c(-c2ccc(OC)cc2)nc2ccc(Cl)cn12,"inconclusive: 15.8 µM [inhibitor, single point]",
Cc1ccc(NC(=O)CN(C)CC(=O)Nc2ccccc2Oc2ccccc2)cc1,,inactive: -10.4%
COc1ccc(C(=O)Nc2ccc(S(=O)(=O)N3CCN(C)CC3)cc2)cc1[N+](=O)[O-],,inactive: -2.08% [at 1.91 µM]
CCN(C(=O)CCc1nc(-c2ccc(OC)cc2)no1)c1cc(OC)ccc1OC,,inactive: -0.212%
COc1ccc(Nc2nc(NN)nc(Nc3ccc(OC)cc3)n2)cc1,,inactive: -35.6% [at 1.91 µM]
CC(C)c1ccc(C(C)NCCS(=O)(=O)c2ccc(Cl)cc2)cc1 (stereo not drawn),"inconclusive: 17.8 µM [inhibitor, single point]",
COc1ccc(C(=O)Nc2nnc(Cc3ccc(OC)c(OC)c3)s2)c(OC)c1,"inconclusive: 7.08 µM [activator, partial curve]",
Oc1oc(-c2ccccc2Br)nc1/C=N/c1ccccn1,active: 8.91 µM,
CCc1cc2cc(C(=O)Nc3ccccc3F)sc2s1,"inconclusive: 6.31 µM [activator, full curve, poor fit]",
COc1ccc(CCNC(=O)c2ccc(N(C)S(=O)(=O)c3ccc(C)cc3)cc2)cc1,"inconclusive: 15.8 µM [activator, single point]",
Cn1nnnc1SCC(=O)C(C)(C)C,,inactive: 8.44%
CCOC(=O)CC(NC(=O)c1ccc(C)cc1)c1ccc(OC)cc1 (stereo not drawn),,inactive: 14.6%
COc1ccc(/C=C2\CC/C(=C\c3ccc(OC)cc3OC)C2=O)c(OC)c1,,inactive: -38.2%
